Values from PubChem BioAssay AID504791 (Drosophila RNAi Screening Center, 2011).

Assay: 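Genes whose knock-down strengthens or weakens small-RNA reporter silencing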 (primary screen)
System: Drosophila S2-derived reporter cells
Reagent: long dsRNA against Drosophila genes, about 150-250 ng dsRNA per well (siRNA assay); about 80-120 ng (miRNA assay)
Duration: about 5 days (siRNA assay); about 4 days (miRNA assay)
Conditions: copper sulfate induction of reporters: 25 µM (siRNA assay); 200 mM stated (miRNA assay), 1-2 days before reading
Measurement: 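Dual luciferase assay: Renilla to firefly signal ratio in each well, scaled to the mean ratio of its plate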
Hit rule: 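a well was a first-pass pick when its plate-scaled ratio rose above 1.5 (siRNA assay) or 1.6 (miRNA assay), or dropped below 0.6; a gene counted only if two separate dsRNAs agreed on retest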
The deposit covers about 23,000 reagents; this is a random part of those with a known target gene and a result. Of all reagents, 199 (0.86%) are marked active. 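Plate-scaled ratios behind the calls are not deposited; printed light signals are raw; many rows marked increased or decreased are still called inactive.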 A plus sign joins genes that one reagent is predicted to hit. Not given: the direction of the score.

predicted target	amplicon	stable siRNA reporter change	stable assay Renilla, run 1 (luminescence)	stable assay firefly, run 1 (luminescence)	Call
CG9951	DRSC11105		8558	2.73e5	inactive
GlcAT-P	DRSC10603		7726	4.04e5	inactive
GlcAT-P	DRSC10604		6180	3.63e5	inactive
CG1965	DRSC12577		4120	3.55e5	inactive
CG1965	DRSC21828		9811	5.90e5	inactive
alphaCOP	DRSC08706		6159	1.95e5	inactive
Cipc	DRSC14898		7134	5.52e5	inactive
Cipc	DRSC14900		7048	3.83e5	inactive
CG17777	DRSC18137		5139	3.06e5	inactive
wac	DRSC08349		6159	3.36e5	inactive
CG2641	DRSC15441		6831	4.19e5	inactive
l(3)72Dr	DRSC10478		6532	3.29e5	inactive
FLASH	DRSC06872		4043	4.74e5	inactive
CG12766	DRSC08295		5411	3.40e5	inactive
CG32652 (retired record)	DRSC18942		4791	3.57e5	inactive
CG32652 (retired record)	DRSC22662		2980	3.63e5	inactive
Or56a	DRSC07495		6427	3.06e5	inactive
Lhr	DRSC06759		8257	3.98e5	inactive

Laid out differently: 4 of the entries above.
predicted target | amplicon | stable siRNA reporter change | stable assay Renilla, run 1 (luminescence) | stable assay firefly, run 1 (luminescence) | Call
Cipc | DRSC14898 | – | 7134 | 5.52e5 | inactive
Cipc | DRSC14900 | – | 7048 | 3.83e5 | inactive
CG17777 | DRSC18137 | – | 5139 | 3.06e5 | inactive
wac | DRSC08349 | – | 6159 | 3.36e5 | inactive

Next reagents follow.
predicted target	amplicon	stable siRNA reporter change	stable assay Renilla, run 1 (luminescence)	stable assay firefly, run 1 (luminescence)	Call
CG42507 + Trl	DRSC09325		3248	2.49e5	inactive
CG42507 + Trl	DRSC11308		5455	1.54e5	inactive
Pcyt2	DRSC08531		8450	3.02e5	inactive
CG31743 + CG34313	DRSC02781		6606	2.09e6	inactive
CG31743 + CG34313	DRSC02782		7379	4.17e5	inactive
Jon99Fii + Jon99Cii + Jon99Ciii + 1 more	DRSC15298		5839	3.67e5	inactive
KP78b + KP78a	DRSC23338	reporter ratio lowered past the hit cutoff	2328	3.11e5	inactive
KP78b + KP78a	DRSC23341		4687	2.56e5	inactive
LpR2	DRSC13726		5584	4.37e5	inactive
LpR2	DRSC13728		6244	3.92e5	inactive
LpR2	DRSC15655		7942	4.21e5	inactive
LpR2	DRSC15658		6887	3.29e5	inactive
Usp15-31	DRSC04426		26907	2.21e6	inactive
Usp15-31	DRSC04532		4619	2.12e5	inactive
rho-6	DRSC02588		6791	5.01e5	inactive
CG1105	DRSC12528		8135	3.71e5	inactive
